The results in this text go back to article PMC5996148.

Protein sequences, listed by entry. Tags and fused reporters are not part of them.
UniProt O75821, whole entry: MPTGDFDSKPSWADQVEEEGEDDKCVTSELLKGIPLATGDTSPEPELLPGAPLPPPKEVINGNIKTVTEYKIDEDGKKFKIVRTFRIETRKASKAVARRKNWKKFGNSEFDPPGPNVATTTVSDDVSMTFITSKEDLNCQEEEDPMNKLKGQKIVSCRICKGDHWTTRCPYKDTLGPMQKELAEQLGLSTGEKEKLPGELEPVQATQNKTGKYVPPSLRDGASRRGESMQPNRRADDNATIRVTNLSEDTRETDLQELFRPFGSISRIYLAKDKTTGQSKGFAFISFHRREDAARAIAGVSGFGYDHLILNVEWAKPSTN

Several values for one entry are separate records, joined by “and”; a condition that tells them apart may be missing. Identical values can stand only once. The list shows a part of the results. For some assays here: Construct or isoform of the protein are uncertain.

Among the test systems are E2F4 (human); EBF1 (human); ECE1 (human); ECE2 (human); EFCBP1 (human); EFTUD2 (human); EGFL8 (human); EIF2B2 (human); EIF3M (human).
What all share (test): protein microarray (ProtoArray v5.0), streptavidin-Alexa Fluor 647
Settings in all cases: 3'-biotin; 20 mM Tris (pH 7.5), 5 mM MgCl2, 100 mM KCl, 0.1% Tween-20, A/T-rich and random oligonucleotide blockers; temperature not stated; high values mean tight binding

In assay [1] the test system is Dedicator of cytokinesis protein 8 (human).
Assay [2] relates to Dehydrogenase/reductase SDR family member 1 (human).
The subject of assay [3] is Density-regulated protein (human).
Assay [4] deals with Deoxycytidine kinase (human).
Assay [5] has as its system Differentially expressed in FDCP 6 homolog (human).
Assay [6] concerns Dihydroorotate dehydrogenase, mitochondrial (human).
For assay [7], the system named is Docking protein 6 (human).
The test system of assay [8] is Down syndrome critical region protein 8 (human).
In assay [9] the test system is Dual specificity tyrosine-phosphorylation-regulated kinase 1A (human).
A further assay deals with T1, EDF1 (UniProt O60869).
T1 sequence: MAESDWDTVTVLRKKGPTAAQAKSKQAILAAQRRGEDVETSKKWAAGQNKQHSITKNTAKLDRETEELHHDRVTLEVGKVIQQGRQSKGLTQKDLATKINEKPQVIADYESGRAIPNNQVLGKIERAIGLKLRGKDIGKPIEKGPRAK

A further assay has as its target EIF3S4 (UniProt O75821).

For the sequence “GGTGACAGGGGTATGGGGAGGGG [G4-2 biotinylated (Ct1)]”, the binding signal in assay [1] is -0.367 z-score; in assay [2], -0.391 z-score and -0.384 z-score; in assay [3], 6.51 z-score; in [4] it was -0.377 z-score; in [5] it was -0.397 z-score; in [6] it was -0.368 z-score. Further, the binding signal in assay [7] was -0.386 z-score; in [8], -0.386 z-score; in assay [9], 3.83 z-score; in the assay with E2F4 (human) it was -0.384 z-score; in the assay on EBF1 (human), -0.378 z-score; in the assay on ECE1 (human), -0.38 z-score. In addition, the binding signal in the assay on ECE2 (human) is -0.391 z-score; in the assay with EDF1 it was 3.22 z-score; in the assay with EFCBP1 (human) it was -0.385 z-score; in the assay with EFTUD2 (human), -0.376 z-score; in the assay with EGFL8 (human) it was -0.374 z-score; in the assay with EIF2B2 (human) it was -0.401 z-score. In addition, the binding signal is -0.376 z-score in the assay on EIF3M (human) and 5.71 z-score with EIF3S4.
